{"source": "PubChem BioAssay AID1159578 (Peter MacCallum Cancer Centre, 2015)", "purpose": "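Knock-downs that alter how fast lymphatic endothelial cells migrate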 (primary screen)", "cells": "human lymphatic endothelial cells", "reagents": "siRNA pool against human genes, 40 nM", "time to read-out": "48 h after transfection", "read-out": "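High-content imaging of dye-stained cells in a scratch assay measures filled wound area and nuclei per well; duplicate means given as ratio to mock and robust z-score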", "reading the numbers": "migration robust z-score: higher = faster migration into the scratch; nuclei per well: higher = more cells in the well", "active means": "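Migration changed when robust z exceeds 2 or falls below -2 and mean nuclei number is at least 3300; otherwise not called changed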", "calls": "active = migration changed; inactive = no migration change, or too few cells", "note": "Shown is one part, drawn at random, of about 18,000 reagents tested. About 1,030 of all reagents (5.7%) were called active. 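Inactive calls also include pools with fewer than 3300 nuclei, whose migration was not assessed.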 Raw values are not corrected between plates. Not all columns of the deposit are shown."}
{"gene":"HCFC1","PubChem SID":"SID255350157","migration robust z-score":0.36,"migration class with cell-count check":"migration z between -2 and 2; enough cells","nuclei per well, duplicate mean":6214,"Outcome":"inactive"}
{"gene":"HOXB13","PubChem SID":"SID255355116","migration robust z-score":0.98,"migration class with cell-count check":"migration z between -2 and 2; enough cells","nuclei per well, duplicate mean":5769,"Outcome":"inactive"}
{"gene":"LILRA5","PubChem SID":"SID255365301","migration robust z-score":-0.03,"migration class with cell-count check":"migration z between -2 and 2; enough cells","nuclei per well, duplicate mean":5764,"Outcome":"inactive"}
{"gene":"PTPRK","PubChem SID":"SID255351964","migration robust z-score":0.52,"migration class with cell-count check":"migration z between -2 and 2; enough cells","nuclei per well, duplicate mean":4948,"Outcome":"inactive"}
{"gene":"TPR","PubChem SID":"SID255352951","migration robust z-score":-0.94,"migration class with cell-count check":"migration z between -2 and 2; enough cells","nuclei per well, duplicate mean":6322,"Outcome":"inactive"}
{"gene":"HNRNPH1","PubChem SID":"SID255350249","migration robust z-score":-0.73,"migration class with cell-count check":"migration z between -2 and 2; enough cells","nuclei per well, duplicate mean":5644,"Outcome":"inactive"}
{"gene":"ESYT1","PubChem SID":"SID255356173","migration robust z-score":-0.68,"migration class with cell-count check":"migration z between -2 and 2; enough cells","nuclei per well, duplicate mean":6002,"Outcome":"inactive"}
{"gene":"MGAT5","PubChem SID":"SID255350954","migration robust z-score":1.38,"migration class with cell-count check":"migration z between -2 and 2; enough cells","nuclei per well, duplicate mean":5256,"Outcome":"inactive"}
{"gene":"RPL4","PubChem SID":"SID255352163","migration robust z-score":-1.09,"migration class with cell-count check":"migration z between -2 and 2; enough cells","nuclei per well, duplicate mean":4108,"Outcome":"inactive"}
{"gene":"CAMK1D","PubChem SID":"SID255359277","migration robust z-score":-0.7,"migration class with cell-count check":"migration z between -2 and 2; enough cells","nuclei per well, duplicate mean":5672,"Outcome":"inactive"}
{"gene":"DISP2","PubChem SID":"SID255361704","migration robust z-score":0.69,"migration class with cell-count check":"migration z between -2 and 2; enough cells","nuclei per well, duplicate mean":5875,"Outcome":"inactive"}
{"gene":"PRKD2","PubChem SID":"SID255356517","migration robust z-score":-0.88,"migration class with cell-count check":"migration z between -2 and 2; enough cells","nuclei per well, duplicate mean":6559,"Outcome":"inactive"}

Entries listed so far whose gene name starts with P or p:
{"gene":"PTPRK","PubChem SID":"SID255351964","migration robust z-score":0.52,"migration class with cell-count check":"migration z between -2 and 2; enough cells","nuclei per well, duplicate mean":4948,"Outcome":"inactive"}
{"gene":"PRKD2","PubChem SID":"SID255356517","migration robust z-score":-0.88,"migration class with cell-count check":"migration z between -2 and 2; enough cells","nuclei per well, duplicate mean":6559,"Outcome":"inactive"}
